# From PubChem BioAssay (NCATS)
# Several values for one entry are separate records, joined by “and”; a condition that tells them apart may be missing. Identical values can stand only once. This list was built around the results that the source calls inconclusive (neither active nor inactive); the mix of calls is not that of the screen. A potency beside an inconclusive call is a rough fit, not a confirmed value. Activity calls are given as the source filed them. Calls follow the shape of the dose curve; as a rule, active = well fitted curve in the direction sought with a large enough effect; inconclusive = small, poorly fitted or top-dose-only effect, or another doubt; inactive = no such curve, though single readings can be large; an effect the other way counts as inactive or inconclusive.
# Legend:
# [1] = Identifying Small Molecule Inhibitors of Pancreatic Cancer Stem Cells (A2780, Spheroid) (AID 1259357); conditions: Potency: A2780 spheroid viability; viability (percent of control): at 46.1 µM (top of the series); also: potency is read from the fitted curve at half-maximal effect;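 also: spheroids pre-formed over 14 days in stem cell medium on hydrogel; compound exposure lasted 48 h before the ATP luminescence read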;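 as to viability (percent of control): 100% = DMSO treated cells and 0% = wells without cells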
# Outline: (§1)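 After a 4 h attachment period, compounds were pinned into wells and cultures held 48 h under standard incubator conditions. Viability was then measured as CellTiter-Glo luminescence following 10 min at room temperature.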
# [2] = Identifying Small Molecule Inhibitors of Pancreatic Cancer Stem Cells (SN12C, Adherent) (AID 1259358);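 also: cell survival measured after 48 h of compound exposure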; also: potency is read from the fitted curve at half-maximal effect
# Outline: as §1
# [3] = Identifying Small Molecule Inhibitors of Pancreatic Cancer Stem Cells (Panc1, Spheroid) (AID 1259359); conditions: Panc1 spheroid cancer stem cell viability; viability, % of control: at 46.1 µM (top of the series);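 also: potency is read from the fitted curve at half-maximal effect; compound exposure lasted 48 h before reading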
# Outline: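 Adherent (2D) versus sphere (3D) formats; spheres generated 14 d in SCM beforehand. Compound transferred by pin tool after 4 h, 48 h incubation, CellTiter-Glo endpoint.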
# [4] = Identifying Small Molecule Inhibitors of Pancreatic Cancer Stem Cells (SN12C, Spheroid) (AID 1259360); conditions: Potency: SN12C spheroid viability; also: potency is read from the fitted curve at half-maximal effect;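 as to viability (% of control): 100% = DMSO-treated cells and 0% = wells without cells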
# Outline: as §1
# [5] = Identifying Small Molecule Inhibitors of Pancreatic Cancer Stem Cells (A278, Adherent) (AID 1259361); conditions: viability (% of control): at 46.1 µM (top of the series);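 also: viability read after 48 h compound exposure; nearly all actives have a fitted effect of over 35% in size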;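 as to viability (% of control): 100% = DMSO-treated cells and 0% = cell-free media-only wells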
# Outline: as §1
# [6] = Identifying Small Molecule Inhibitors of Pancreatic Cancer Stem Cells (Panc1, Adherent) (AID 1259362); conditions: Potency: viability; viability, % of control: at 46.1 µM (top of the series); also: potency is read from the fitted curve at half-maximal effect;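 as to viability, % of control: compound exposure lasted 48 h before the viability read; plate controls were DMSO-treated cells for no effect and cell-free media wells for full effect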
# Outline: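 Pre-formed 14-day tumor spheroids or adherent cells dosed and incubated 48 h, 37C, 5% CO2. Viability assessed by CellTiter-Glo.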
# [7] = P-glycoprotein substrates identified in KB-8-5-11 adenocarcinoma cell line, qHTS therapeutic library screen (AID 1346987); also: nearly all actives have a fitted effect of over 65% in size; also: potency is read from the fitted curve at half-maximal effect
# Outline: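 P-gp-mediated resistance screen: KB-8-5-11 cells treated 72 h with compounds in dose-response. CellTiter-Glo viability.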
# [8] = P-glycoprotein substrates identified in KB-3-1 adenocarcinoma cell line, qHTS therapeutic library screen (AID 1346986);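 also: potency is read from the fitted curve at half-maximal effect; potency is for cytotoxicity meaning loss of cell viability; nearly all actives have a fitted effect of over 60% in size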
# Outline: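 KB-3-1 parental cells and P-gp-overexpressing KB-8-5-11 (colchicine omitted during assay) plated at 500 cells/well, dosed in dose-response, incubated 72 h at 37 degree C. CellTiter-Glo luminescence read; KB-8-5-11 also tested with tariquidar.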
structure (smiles),measurement,setting,value
Cc1nc(N)sc1-c1ccnc(Nc2ccc(N3CCOCC3)cc2)n1,Potency,[1],"inconclusive: 33.2 µM [cytotoxic, single point]"
same,Potency,[2],"inconclusive: 1.32 µM [cytotoxic, partial curve, poor fit]"
same,Potency,[3],"inconclusive: 18.7 µM [cytotoxic, partial curve, poor fit]"
same,Potency,[4],"inconclusive: 23.5 µM [cytotoxic, single point]"
same,IC50 (viability decrease),[5],active: 5.9 µM
same,Potency,[6],"inconclusive: 37.2 µM [cytotoxic, single point]"
same,Potency,[7],active: 5.26 µM and active: 1.16 µM
N#CC1(c2ccc(NC(=O)c3cccnc3NCc3ccncc3)cc2)CCCC1,Potency,[8],"inconclusive: 29.1 µM [inhibitor, single point]"
same,Potency,[7],"inconclusive: 2.96 µM [inhibitor, full curve, poor fit]"
O=C1C(Cl)=C(NCCN2CCOCC2)C(=O)c2ncccc21,Potency,[1],active: 9.35 µM
same,Potency,[4],active: 14.8 µM
same,IC50 (viability decrease),[5],active: 3.32 µM
same,Potency,[6],active: 1.66 µM
same,Potency,[7],active: 20.9 µM
CC(C)(C)COc1ccc(-n2cc(C(=O)O)cn2)cc1C#N,Potency,[1],inactive
same,Potency,[3],"inconclusive: 8.33 µM [cytotoxic, full curve, poor fit]"
same,Potency,[4],inactive
same,IC50 (viability decrease),[5],inactive
same,Potency,[6],"inconclusive: 4.69 µM [cytotoxic, partial curve, poor fit]"
O=C(O)CCCCCC(=O)NN=C1CCCC1,Potency,[7],inactive
CN(c1ncccc1CNc1nc(Nc2ccc3c(c2)CC(=O)N3)ncc1C(F)(F)F)S(C)(=O)=O,Potency,[1],active: 5.26 µM
same,Potency,[2],"inconclusive: 26.4 µM [cytotoxic, single point]"
same,Potency,[3],"inconclusive: 16.6 µM [cytotoxic, partial curve, poor fit]"
same,IC50 (viability decrease),[5],active: 2.96 µM
same,Potency,[6],"inconclusive: 23.5 µM [cytotoxic, partial curve, poor fit]"
same,Potency,[8],active: 5.17 µM
same,Potency,[7],"inconclusive: 29.6 µM [inhibitor, single point] and inconclusive: 29.1 µM [inhibitor, single point]"
O=C(O)Cc1cccc(OCCCN(Cc2cccc(C(F)(F)F)c2Cl)CC(c2ccccc2)c2ccccc2)c1,Potency,[1],"inconclusive: 0.0042 µM [rising, full curve, poor fit]"
same,Potency,[2],inactive
same,Potency,[3],"inconclusive: 23.5 µM [cytotoxic, partial curve, poor fit]"
same,Potency,[4],"inconclusive: 29.6 µM [cytotoxic, single point]"
same,IC50 (viability decrease),[5],"inconclusive: 23.5 µM [cytotoxic, partial curve]"
same,Potency,[6],"inconclusive: 26.4 µM [cytotoxic, single point]"
same,Potency,[7],"inconclusive: 1.05 µM [inhibitor, full curve, poor fit]"
CC(=O)N(C)C1(c2ccccc2)CCN(CCC[C@]2(c3ccc(Cl)c(Cl)c3)CCCN(C(=O)c3ccccc3)C2)CC1,Potency,[1],active: 18.7 µM
same,Potency,[4],"inconclusive: 18.7 µM [cytotoxic, partial curve]"
same,Potency,[6],"inconclusive: 37.2 µM [cytotoxic, single point]"
O=c1c(O)c(-c2ccc(O)c(O)c2)oc2cc(O)cc(O)c12,viability (percent of control),[1],inconclusive: 114%
same,Potency,[2],"inconclusive: 29.6 µM [cytotoxic, partial curve, poor fit]"
same,Potency,[3],"inconclusive: 0.526 µM [cytotoxic, full curve, poor fit]"
same,Potency,[4],"inconclusive: 23.5 µM [cytotoxic, partial curve, poor fit]"
same,IC50 (viability decrease),[5],active: 29.6 µM
same,Potency,[6],"inconclusive: 14.8 µM [cytotoxic, partial curve, poor fit]"
same,Potency,[8],"inconclusive: 29.1 µM [inhibitor, single point]"
same,Potency,[7],"inconclusive: 29.6 µM [inhibitor, single point] and inconclusive: 25.9 µM [inhibitor, single point]"
O=C(Nc1ccc(OC(F)(F)F)cc1)c1sccc1NCc1ccnc2ccccc12,Potency,[1],"inconclusive: 29.6 µM [cytotoxic, single point]"
same,Potency,[2],"inconclusive: 37.2 µM [cytotoxic, partial curve, poor fit]"
same,Potency,[4],active: 23.5 µM
same,IC50 (viability decrease),[5],active: 20.9 µM
same,Potency,[6],"inconclusive: 18.7 µM [cytotoxic, partial curve, poor fit]"
same,Potency,[7],"inconclusive: 18.7 µM [inhibitor, partial curve, poor fit] and inconclusive: 13 µM [inhibitor, partial curve]"
COc1cc2c(Oc3ccc(NC(=O)C4(C(=O)Nc5ccc(F)cc5)CC4)cc3F)ccnc2cc1OCCCN1CCOCC1,Potency,[1],"inconclusive: 33.2 µM [cytotoxic, single point]"
same,Potency,[2],"inconclusive: 18.7 µM [cytotoxic, partial curve]"
same,Potency,[3],"inconclusive: 16.6 µM [cytotoxic, partial curve, poor fit]"
same,Potency,[4],active: 23.5 µM
same,IC50 (viability decrease),[5],active: 4.69 µM
same,Potency,[6],"inconclusive: 6.62 µM [cytotoxic, partial curve]"
same,Potency,[7],active: 935 nM and active: 5.17 µM
Cc1[nH]c(=O)c(C#N)cc1-c1ccc2nccn2c1,Potency,[1],"inconclusive: 0.235 µM [rising, full curve, poor fit]"
same,Potency,[4],inactive
same,IC50 (viability decrease),[5],inactive
same,Potency,[6],inconclusive: 0.001 µM
CN(C(Cc1ccc(OS(=O)(=O)c2cccc3cnccc23)cc1)C(=O)N1CCN(c2ccccc2)CC1)S(=O)(=O)c1cccc2cnccc12 (centres undefined),Potency,[8],"inconclusive: 29.1 µM [inhibitor, single point]"
same,Potency,[7],"inconclusive: 23.1 µM [inhibitor, single point]"
CS(=O)(=O)CCNCc1ccc(-c2ccc3ncnc(Nc4ccc(OCc5cccc(F)c5)c(Cl)c4)c3c2)o1,Potency,[1],active: 16.6 µM
same,Potency,[2],active: 0.418 µM
same,Potency,[3],active: 37.2 µM
same,Potency,[4],"inconclusive: 33.2 µM [cytotoxic, single point]"
same,IC50 (viability decrease),[5],"inconclusive: 18.7 µM [cytotoxic, partial curve]"
same,Potency,[6],active: 20.9 µM
CC1=C[C@@H]2[C@@H]([C@@H](O)C[C@@]3(C)[C@H]2C[C@@H](C)[C@]3(O)C(=O)CO)[C@@]2(C)Cc3cnn(-c4ccccc4)c3C=C12,Potency,[1],inactive
same,Potency,[2],"inconclusive: 18.7 µM [cytotoxic, partial curve, poor fit]"
same,Potency,[4],active: 26.4 µM
same,Potency,[6],"inconclusive: 0.148 µM [cytotoxic, full curve, poor fit]"
COc1ccc(CC2=NN3C([C@@H](CCc4ccccc4)[C@@H](C)O)=NC(C)C3C(=O)N2)cc1OC (some centres undefined),viability (percent of control),[1],inconclusive: 102%
same,Potency,[2],"inconclusive: 26.4 µM [cytotoxic, partial curve, poor fit]"
same,Potency,[3],"inconclusive: 0.264 µM [rising, full curve, poor fit]"
same,Potency,[4],inactive
same,IC50 (viability decrease),[5],active: 23.5 µM
same,Potency,[6],inactive
C[C@@H](O[C@H]1OCCN(Cc2n[nH]c(=O)[nH]2)[C@@H]1c1ccc(F)cc1)c1cc(C(F)(F)F)cc(C(F)(F)F)c1,Potency,[1],active: 18.7 µM
same,Potency,[6],"inconclusive: 13.2 µM [cytotoxic, partial curve, poor fit]"
Nc1nccc(Oc2ccc(NC(=O)c3c[nH]cc(-c4ccc(F)cc4)c3=O)cc2F)c1Cl,Potency,[1],"inconclusive: 0.0418 µM [rising, full curve, poor fit]"
same,Potency,[2],"inconclusive: 18.7 µM [cytotoxic, partial curve, poor fit]"
same,Potency,[4],"inconclusive: 18.7 µM [cytotoxic, partial curve]"
same,Potency,[6],inactive
same,Potency,[7],active: 23.5 µM and active: 16.4 µM
COc1ccc(-c2oc3cc(OC)ccc3c2C(=O)c2ccc(C#N)cc2)cc1,Potency,[1],"inconclusive: 26.4 µM [cytotoxic, single point]"
same,Potency,[2],inactive
same,IC50 (viability decrease),[5],"inconclusive: 37.2 µM [cytotoxic, single point]"
same,Potency,[6],"inconclusive: 0.0037 µM [rising, full curve, poor fit]"
same,Potency,[7],inactive
Cc1ccc(-n2nc(C(C)(C)C)cc2NC(=O)Nc2ccc(OCCN3CCOCC3)c3ccccc23)cc1,Potency,[1],"inconclusive: 26.4 µM [cytotoxic, partial curve, poor fit]"
same,Potency,[2],"inconclusive: 23.5 µM [cytotoxic, partial curve, poor fit]"
same,Potency,[4],"inconclusive: 23.5 µM [cytotoxic, single point]"
same,"viability, % of control",[6],inconclusive: 99.2%
same,Potency,[7],"inconclusive: 32.6 µM [inhibitor, single point] and inconclusive: 23.1 µM [inhibitor, single point]"
CN1CC(=O)N/C1=N/C(=O)Nc1cccc(Cl)c1,Potency,[1],"inconclusive: 0.0023 µM [rising, full curve, poor fit]"
same,Potency,[3],"inconclusive: 13.2 µM [rising, partial curve, poor fit]"
same,Potency,[4],inactive
same,IC50 (viability decrease),[5],inactive
same,Potency,[6],"inconclusive: 0.0083 µM [rising, full curve, poor fit]"
CC(C)(O)c1cc2nc(-c3cnc(N)nc3)nc(N3CCOCC3)c2s1,Potency,[8],active: 0.411 µM
COc1cc2c(cc1O)CC[C@@H]1[C@@H]2CC[C@]2(C)[C@@H](O)CC[C@@H]12,Potency,[1],"inconclusive: 0.166 µM [cytotoxic, full curve, poor fit]"
same,Potency,[3],"inconclusive: 0.118 µM [cytotoxic, full curve, poor fit]"
same,Potency,[4],active: 5.9 µM
same,Potency,[6],active: 1.05 µM
CCN1/C(=C/C(C)=O)Sc2ccc(OC)cc21,Potency,[8],"inconclusive: 29.1 µM [inhibitor, single point]"
same,Potency,[7],inactive
